From PubChem BioAssay AID1259415 (National Center for Advancing Translational Sciences (NCATS), 2018)
The campaign covered roughly 410,000 compounds. About 18,000 (4.4%) were called active. Inconclusive results, whose numbers are uncertain, are shown with a selection of clear calls. Rule as the data show it: active = activity change below about -60%; inconclusive = no clear call, values can overlap the other calls; inactive = above about -39%.

Experiment: qHTS Assay for inhibitors of the human cytomegalovirus (HCMV)
Settings: HFF cells, HCMV-luciferase reporter, 72 h; at 57.5 µM; active compounds read low
How it was run: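 Two compound doses tested in HFFs infected with HCMV-luciferase, MOI 1 PFU/cell, 72 h at 37C. Lysate luminescence read with OneGlo; data normalized against buffer-only and 10uM Salinomycin inhibitor controls.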
% is scaled to controls: 0 for no effect and ±100 for the full control effect.

Row | Compound | activity change, negative = inhibition
1 | COc1ccc(C(=O)NC2CCCCCC2)cc1S(=O)(=O)N1CCCc2ccccc21 | active: -62.1%
2 | CCCOC(=O)c1[nH]c2c(c1C)C(=O)CC(c1cc(OC)c(OC)c(OC)c1)C2 (stereo unspecified) | inconclusive: -53.2%
3 | COc1ccc(-n2ncc3c2CC(C)(C)CC3NC(=O)Cc2nonc2C)cc1 (stereo unspecified) | inconclusive: -52.9%
4 | CC(C)(C)OC(=O)N1CCC(C(=O)Nc2cccc(C(=O)NCCCCc3ccccc3)c2)CC1 | inactive: -2.97%
5 | O=C(COC(=O)COc1ccccc1Cc1ccccc1)Nc1cccnc1Cl | inactive: -14.7%
6 | CCN(CC)c1ccc(/C=C(/C#N)c2nc3ccc(C)cc3[nH]2)c(OC(C)C)c1 | inconclusive: -52.9%
7 | O=c1c2ccccc2c(-c2ccccc2)nn1-c1cc(Cl)ccc1[N+](=O)[O-] | inconclusive: -51.6%
8 | N#Cc1cnn2c3c(cnc12)C(=O)N1CCc2ccccc2C1C3 (stereo unspecified) | inconclusive: -49.6%
9 | Cc1cc([N+](=O)[O-])nn1Cc1ccc(C(=O)N/N=C/c2ccc(O)cc2O)cc1 | inconclusive: -58.9%
10 | CCc1nc(Nc2ccc(OC)c(OC)c2)c2nnn(Cc3ccccc3Cl)c2n1 | inconclusive: -56.2%
11 | Cc1ccc(C)c(CN2C(=O)c3ccccc3S(=O)c3ccc(C(=O)NCCCN4CCCC4)cc32)c1 (stereo unspecified) | inconclusive: -45%
12 | CN(C)S(=O)(=O)N1CCN(C(=O)c2ccc3c(c2)OCO3)CC1 | inconclusive: -47.2%
13 | CCOC(=O)C1CCCN(c2nc3c(C)cccn3c(=O)c2/C=C(\C#N)C(=O)NCc2ccco2)C1 (stereo unspecified) | inconclusive: -47.9%
14 | Cc1ccc(C2=NN(C(=O)CCl)C(c3cccs3)C2)o1 (stereo unspecified) | active: -100%
15 | COc1ccc(CNC(=O)c2ccc(CS(=O)(=O)c3ccc(Br)cc3)o2)cc1 | inconclusive: -44.3%
16 | CCCCOC(=O)c1ccc(Nc2nc3ccc(C(=O)c4ccccc4)cc3n3cnnc23)cc1 | inactive: 0%
17 | Cc1nn(C)c(=O)n1-c1ccc(Oc2ccccc2)cc1 | inactive: -14.1%
18 | CCc1cccc(C)c1NC(=O)Cn1ncc2c3ccccc3n(Cc3ccccc3)c2c1=O | inactive: -4.01%
19 | CCOc1ccc(NC(=O)CNC(=O)c2nn(-c3ccc(OC)cc3)c(=O)c3ccccc23)cc1 | active: -64.7%
20 | COC(=O)c1ccc(-n2nnnc2SC)cc1 | inactive: -0.556%
21 | CN1CCN2c3ccccc3Cc3ccccc3C2C1 (stereo unspecified) | inconclusive: -45.3%
22 | C/C(=N/NC(=O)CNC(=O)c1cccnc1)c1ccc(Cl)cc1 | inconclusive: -45.9%

Row | Compound | activity change, negative = inhibition
23 | COc1ccc(C(=O)NC(=S)Nc2ccc(N3CCOCC3)c(Cl)c2)cc1[N+](=O)[O-] | inconclusive: -53.5%
24 | C=CCn1cc(C(C)=O)c(=O)[nH]c1=O | inconclusive: -46.9%
25 | O=C(Cc1ccc(Cl)c(Cl)c1)Nc1cccnc1 | inconclusive: -43.3%
26 | c1ccc2[nH]c(NN=C3CCCCCC3)nc2c1 | inconclusive: -44.9%
27 | O=S(=O)(c1cccs1)N1CCN(CC(O)COc2cccc(Br)c2)CC1 (stereo unspecified) | inconclusive: -42.3%
28 | CCc1ccc(-n2c(=O)c3c(C)c(C)sc3n(CC(=O)NCC3CCCO3)c2=O)cc1 (stereo unspecified) | inconclusive: -48.7%
29 | COc1ccccc1CNC(=O)c1ccccc1C(=O)NC(CC(C)C)C(=O)NCc1ccccc1OC (stereo unspecified) | inconclusive: -58.4%
30 | Cc1csc(SCC(=O)NC(=O)NC(C)C)n1 | inconclusive: -42.1%
31 | NS(=O)(=O)c1cccc(NC(=O)c2ccc3nc[nH]c3c2)c1 | inconclusive: -47.3%
32 | Cc1c(C(=O)OCc2ccccc2)nnn1-c1nonc1N | inconclusive: -53.1%
33 | COc1ccc(S(=O)(=O)Nc2cc(C)c(O)cc2C(C)C)cc1 | inconclusive: -51.6%
34 | COCCCNC(=O)C1CCN(c2nc3ccc(Cl)cc3[nH]2)CC1 | inconclusive: 0%
35 | N#Cc1ccc(C(=O)NC23CC4CC(CC(C4)C2)C3)cc1 | inconclusive: -43.3%
36 | CN1C(=O)c2ccccc2Cc2c(NCc3ccccc3)ncnc21 | inconclusive: -48.2%
37 | COc1ccc(NC(=O)C2Cc3c(-c4cccc(C(N)=O)c4)ccnc3O2)cn1 (stereo unspecified) | inactive: 18.6%
38 | COc1ccc(/C=N/NC(=O)c2cc3c(OC)ccc(OC)c3[nH]2)cc1O | inconclusive: -58.4%
39 | Cc1ccc(C(=O)NC2CC3CCC(C2)N3)cc1 (stereo unspecified) | inconclusive: -42%
40 | Cc1cc(C(=O)COC(=O)C2COc3ccccc3O2)c(C)n1CC1CCCO1 (stereo unspecified) | inactive: 26.2%
41 | COCCCNC(=S)N1CCN(S(=O)(=O)c2ccc(OC)cc2)CC1 | inconclusive: -44.9%
42 | Cc1cc(C(=O)CCl)c(C)n1CCc1ccccc1 | active: -100%
43 | CC(=O)c1cccc(N2C(=O)CN(S(C)(=O)=O)CC2(C)C(=O)NC2CCCC2)c1 (stereo unspecified) | inconclusive: 0%
44 | CCc1ccc(NC(=O)Cn2c(=O)n(CCc3ccccc3)c(=O)c3sc4ccccc4c32)cc1 | inconclusive: -44.4%

Row | Compound | activity change, negative = inhibition
45 | N[C@@H](Cc1ccc(O)c(O)c1)C(=O)O | inconclusive: -52%
46 | COc1ccc(C(=O)Nc2ccc(NC(=O)c3cccs3)c(OC)c2)cc1Cl | inconclusive: -51.5%
47 | CC1CCN(CCCNC(=O)CN2CCN(Cc3ccc(Cl)cc3)C2=O)CC1 | inconclusive: -55.1%
48 | Cc1c(Br)c([N+](=O)[O-])nn1CC(=O)NC1CCCCCC1 | inconclusive: -56.1%
49 | NC(=O)c1ccsc1NC(=O)COC(=O)CNC(=O)c1cccc([N+](=O)[O-])c1 | inconclusive: -44.2%
50 | COc1ccc(OC)c(NC(=O)CC2SC(=Nc3ccccc3)N(CCc3ccccn3)C2=O)c1 (stereo unspecified) | inconclusive: -52.6%
51 | COc1cccc(N2CCN(S(=O)(=O)c3ccc4c(c3)N(C(C)=O)CCO4)CC2)c1 | inactive: -18.9%
52 | COC(=O)c1scc(C#N)c1N/N=C(\C#N)S(=O)(=O)c1ccc(Cl)cc1 | active: -96.6%
53 | O=C(Nc1cccc2cccnc12)C1CCCC1 | inconclusive: -44.3%
54 | CC(=O)Nc1ccc(S(=O)(=O)N2CCC(C(=O)NCCc3c[nH]c4ccccc34)CC2)cc1 | inactive: -18.2%
55 | COc1ccc(CNC(=O)COc2ccc(C)nc2[N+](=O)[O-])cc1 | inconclusive: -45.3%
56 | COCCn1c(SCC(=O)Nc2ccccc2OC)nc2c([nH]c3ccccc32)c1=O | inactive: 22.5%
57 | CC(C)c1ccc(N(CC(=O)NCCCN2CCOCC2)S(=O)(=O)c2ccccc2)cc1 | inconclusive: -45.8%
58 | O=C(Cc1ccc(N2CCNC2=O)cc1)N1CCCC(Nc2ccc(F)c(F)c2)C1 (stereo unspecified) | active: -61.4%
59 | C/C(=N\NC(=O)COc1ccc(C(C)(C)C)cc1)c1ccccc1 | inactive: 7.49%
60 | O=C(CCc1nnc2ccc(NCc3ccco3)nn12)Nc1ccc(F)cc1 | inactive: 21.2%
61 | Cc1cccc(-n2c(Cc3cc(=O)[nH]c(=O)[nH]3)nnc2SCC(=O)N2CCc3ccccc32)c1 | inconclusive: -52.7%
62 | CN(CCOc1ccc(Cl)cc1)C(=O)c1cccc(S(=O)(=O)N2CCN(c3ccccc3)CC2)c1 | inactive: -24.7%
63 | Cc1nc(-c2ccc(C(=O)Nc3cccc(Br)c3)cc2)cs1 | active: -67.9%
64 | O=C(N/C(=C/c1ccc(Cl)cc1)C(=O)N1CCCCC1)c1ccco1 | inconclusive: -50.1%
65 | Cc1ccc(NC(=S)NCc2cccn2C)cc1 | inconclusive: -50.6%
66 | Cc1cc(NC(=O)C(C)SCC(=O)OCC(=O)Nc2c(C)cccc2C(C)C)no1 (stereo unspecified) | inconclusive: -50.1%

An excerpt from above in order of SMILES length, low to high.
Row | Compound | activity change, negative = inhibition
8 | N#Cc1cnn2c3c(cnc12)C(=O)N1CCc2ccccc2C1C3 (stereo unspecified) | inconclusive: -49.6%
37 | COc1ccc(NC(=O)C2Cc3c(-c4cccc(C(N)=O)c4)ccnc3O2)cn1 (stereo unspecified) | inactive: 18.6%
23 | COc1ccc(C(=O)NC(=S)Nc2ccc(N3CCOCC3)c(Cl)c2)cc1[N+](=O)[O-] | inconclusive: -53.5%

(continued)

Row | Compound | activity change, negative = inhibition
67 | COCCNC(=S)N1CCN(c2nc(-c3ccc(Cl)cc3)cs2)CC1 | inconclusive: -45%
68 | Cc1ccc(NC(=O)C2CCCN2S(=O)(=O)c2ccc3nc(-c4ccccc4)[nH]c3c2)cc1C (stereo unspecified) | inconclusive: -56.4%
69 | CCCN1C(=O)SC(CC(=O)Nc2cccc3ccccc23)C1=O (stereo unspecified) | inconclusive: -45.7%
70 | Cc1nc2c(oc3ccccc32)c(=O)o1 | inactive: 77.8%
71 | Nc1sc(-c2ccccc2)cc1C(=O)N1CCNCC1 | inconclusive: -43.6%
72 | COc1cccc(CNC(=O)c2ccc(CS(=O)(=O)Cc3ccc(C)cc3)o2)c1 | inactive: -2.69%
73 | COc1ccccc1N(CC(=O)N(C)Cc1ccccc1)S(=O)(=O)c1cccs1 | inactive: -20.4%
74 | COc1ccc(-n2nnnc2-c2nc3ccccc3s2)cc1 | inconclusive: -45.2%
75 | CCCCNCCOCCOc1ccccc1-c1ccccc1 | inconclusive: -43.3%
76 | Cc1ccc(NC(=O)Cn2nc(-c3ccccc3)nc(Cc3ccccc3)c2=O)cc1 | inconclusive: -48.7%
77 | CCCN(CCC)C(=O)c1nn(C)c2c1CSc1ccccc1-2 | inactive: -2.13%
78 | CCOCCCn1c(=N)c(C(=O)NCc2ccccc2)cc2c(=O)n3ccccc3nc21 | inactive: 11.8%
79 | CCOC(=O)C1CCN(Cc2cc(=O)n3c(-c4ccccc4)csc3n2)CC1 | inactive: -15.7%
80 | Cc1ccc(Nc2nnc(SCc3cc(=O)n4cc(C)ccc4n3)s2)cc1 | inconclusive: -48%
81 | CCOc1ccccc1NC(=O)C(OC(=O)c1cnccn1)c1ccccc1 (stereo unspecified) | inconclusive: -56.3%
82 | Cc1c2cnn(-c3ccccc3)c(=O)c2c(C)n1C(C)C(=O)NCc1cccc(Br)c1 (stereo unspecified) | inconclusive: -59.5%
83 | CCC(C)C(=O)Nc1nc(C)c(-c2csc(Nc3cc(Cl)ccc3OC)n2)s1 (stereo unspecified) | inconclusive: -57.1%
84 | CC(NC(=O)Nc1cccc([N+](=O)[O-])c1)c1ccc2c(c1)OCO2 (stereo unspecified) | active: -64.3%
85 | CN(C)C(=O)/C(=C\c1cccc(Oc2ccccc2)c1)NC(=O)c1ccccc1 | inconclusive: -42.1%
86 | C=CCOc1ccc(C(c2c(C(=O)O)[nH]c3ccccc23)c2c(C(=O)O)[nH]c3ccccc23)cc1 | inactive: 48.7%

Gathered by group, those above with a COOH group
Row | Compound | activity change, negative = inhibition
45 | N[C@@H](Cc1ccc(O)c(O)c1)C(=O)O | inconclusive: -52%
86 | C=CCOc1ccc(C(c2c(C(=O)O)[nH]c3ccccc23)c2c(C(=O)O)[nH]c3ccccc23)cc1 | inactive: 48.7%
